Results reported in patent US11242359B2, “Biocompatible modular tetrazine platform” (Centre national de la recherche scientifique, priority 2017, dated 2022).

Experiment: Chemoselectivity of (R)-NODAGA-S-Tz-Cl for thiols versus amines: conversion rate of model peptides (LC-MS at 214 nm)
Settings: peptide 20 μM, phosphate buffer 0.01 M, 2.5 equiv. (R)-NODAGA-S-Tz-Cl, 25° C.

Substance	Conversion rate of the peptide (pH 5.97, 3.5 min) [%]	Conversion rate of the peptide (pH 5.97, 30 min) [%]	Conversion rate of the peptide (pH 6.29, 3.5 min) [%]	Conversion rate of the peptide (pH 6.29, 30 min)	Conversion rate of the peptide (pH 7.13, 3.5 min)	Conversion rate of the peptide (pH 7.13, 30 min)
Ac-CKYWGRGDS-NH2 [model peptide containing a cysteine (thiol)]	96	97	96	quant.	quant.	quant.
Ac-MKYWGRGDS-NH2	–	–	<1	<1%	<1%	<1%
